Measurements: PubChem BioAssay AID540276 (National Center for Advancing Translational Sciences (NCATS), 2011)
Out of some 300,000 compounds screened, about 5,400 (1.8%) were called active. Inconclusive results, whose numbers are uncertain, are shown with a selection of clear calls. The call rests on the fitted dose curve; tested in HEK293 cells. A potency beside an inconclusive call is a rough fit, not a confirmed value.

assay: qHTS for inhibitors of binding or entry into cells for Marburg Virus; conditions: Marburg virus pseudotyped entry inhibition, cell reporter; activity change, negative = inhibition: at 37.8 µM (top of the series) unless noted
On the % scale 0 is the no-effect control and ±100 the full control effect; potency means the concentration at half of the fitted maximal effect.

SMILES	activity change, negative = inhibition	Potency
COc1ccc(OC)c(NC(=O)C(C)n2c(=O)c(-c3ccccc3NC(C)=O)nc3ccccc32)c1 (stereo not given)	inactive: -10% [at 46.1 µM]	
CC1(C)NC(=O)N(CCOCCOc2cccc(Oc3ccccc3)c2)C1=O	inactive: -2.51%	
COc1ccc(C)cc1-n1nnnc1SCC(=O)NC(=O)NCc1ccco1	inactive: -13.8%	
CC(C)(C)c1ccc(/C=C/C(=O)Nc2ccc3c(c2)OCCO3)cc1		inactive
O=C(CSc1ccc(F)cc1)Nc1ccccc1Br	inactive: 4.46%	
CN(C)c1ncc(C2=C(Cl)C(=O)C(N3CCCC3)=C(Cl)C2=O)s1		inconclusive: 20.6 µM [inhibitor, single point]
O=C(CCn1ccc2ccccc21)Nc1ccc(N2CCOCC2)cc1	inactive: -3.38%	
O=C(CSc1nc2ccccc2c(=O)n1C1CC1)NCc1ccccc1		inconclusive: 4.11 µM [inhibitor, single point]
Cc1ccc(SCC(=O)N2CCc3ccccc32)cc1	inactive: 27.9%	
COC(=O)c1ccc(CNC(=O)COC(=O)COc2ccc(OC)cc2)cc1		inconclusive: 5.62 µM [activator, single point]
COc1ccc(CCNC(=O)C2CCCN(Cc3nc(-c4cccc(Cl)c4)oc3C)C2)cc1OC (stereo not given)		inconclusive: 20.6 µM [inhibitor, single point]
CC(C)(C)S(=O)(=O)c1cnc2c(-c3ccsc3)cnn2c1N		inconclusive: 5.62 µM [activator, single point]
O=C(Nc1ccc2oc(-c3ccccc3F)nc2c1)c1ccco1		inconclusive: 0.355 µM [activator, full curve, poor fit]
Cc1oc2ccc(O)c(CN3CCCCCC3)c2c1C(=O)Nc1cccc(C(F)(F)F)c1		inconclusive: 35.5 µM [inhibitor, single point]
O=[N+]([O-])c1ccc(N/N=C2\CC3CC=CC23)c([N+](=O)[O-])c1 (stereo not given)	inactive: 0.472% [at 46.1 µM]	
O=C(NCc1cccnc1)c1ccc(-c2ccccc2[N+](=O)[O-])o1	inactive: 0.279%	
CCCN(CC(=O)Nc1ccccc1OC)C(=O)c1ccc2[nH]c3c(c2c1)CC(C)CC3 (stereo not given)		inconclusive: 20 µM [inhibitor, partial curve, poor fit]
Cc1ccc(/C=N/Nc2nnc(Cc3ccccc3)c(=O)[nH]2)o1		inconclusive: 7.08 µM [inhibitor, partial curve, poor fit]
O=C(CCCc1ccccc1)Nc1cccc2c1CCCC2		inconclusive: 35.5 µM [inhibitor, single point]
O=C1c2ccccc2C(=O)c2c1cccc2N1CCN(CCO)CC1		inconclusive: 29.1 µM [inhibitor, single point]
COc1ccccc1N(CC(=O)Nc1ccccc1C(F)(F)F)S(=O)(=O)c1ccc(C)cc1		inconclusive: 20 µM [inhibitor, single point]
Cc1ccc(C)c(N2CCN(C(=O)Cn3nc(C)c4sc5ccccc5c4c3=O)CC2)c1		inconclusive: 35.5 µM [inhibitor, single point]
CCOC(=O)c1c(C)n(C)c2ccc(OC)c(NC(=O)CN3CCN(Cc4ccccc4)CC3)c12		inactive

No new results follow: 2 of the compounds above.
SMILES	activity change, negative = inhibition	Potency
COc1ccccc1N(CC(=O)Nc1ccccc1C(F)(F)F)S(=O)(=O)c1ccc(C)cc1		inconclusive: 20 µM [inhibitor, single point]
Cc1ccc(C)c(N2CCN(C(=O)Cn3nc(C)c4sc5ccccc5c4c3=O)CC2)c1		inconclusive: 35.5 µM [inhibitor, single point]

Remaining list, next part.

SMILES	activity change, negative = inhibition	Potency
O=C(Nc1nc2ccccc2n1CCN1CCCC1)C1CCCCC1		inconclusive: 15.8 µM [inhibitor, single point]
CCOC(=O)C(=CNNc1ccsc1C(=O)OC)C(=O)OCC		inconclusive: 5.62 µM [activator, single point]
CCc1ccc(-c2ccc(SCC(=O)Nc3nnc(C)s3)nn2)cc1		inconclusive: 17.8 µM [inhibitor, single point]
COc1cc(NC(=O)c2ccccc2F)c(OC)cc1NC(=O)CN1CCCCC1		inconclusive: 35.5 µM [inhibitor, single point]
CC(C)NC(=O)CSc1c2c(nc3ccccc13)CCCC2	inactive: 11.6% [at 46.1 µM]	
COc1ccc(-c2cnc(N)nc2-c2ccc(OCc3ccccc3)cc2O)cc1		inconclusive: 6.31 µM [inhibitor, partial curve, poor fit]
CC[n+]1c(/C=C/C=C2/N(C)c3ccccc3C2(C)C)sc2ccccc21		active: 0.92 µM
Cc1cc(NC(=O)c2ccc(N3CCCC3)c([N+](=O)[O-])c2)no1		inconclusive: 0.708 µM [activator, partial curve, poor fit]
CC1(C)CC(c2nc(-c3ccc([N+](=O)[O-])cc3)cs2)CCO1 (stereo not given)		inconclusive: 5.62 µM [inhibitor, single point]
O=C(/C=C/c1ccc2c(c1)OCO2)Nc1ccc(Cl)cn1		inconclusive: 35.5 µM [inhibitor, single point]
COc1cc(/C=N/NC(=O)c2ccncc2)ccc1OCC(=O)Nc1ccccc1		inconclusive: 2.82 µM [activator, single point]
Cc1cccc(CN2CCc3c([nH]c4ccccc34)C2CC(C)C)n1 (stereo not given)		inconclusive: 11.2 µM [inhibitor, partial curve, poor fit]
O=C1CCC(/C=C/c2ccccc2)=NN1Cc1ccccc1	inactive: -6.59% [at 46.1 µM]	
CC1CCCCN1c1ncnc(N)c1[N+](=O)[O-] (stereo not given)	inactive: -5.23% [at 46.1 µM]	
Cc1ccccc1-c1nc(CN2CCC(C(=O)NC(C)C)CC2)c(C)o1	inactive: 8.31% [at 46.1 µM]	
COc1ccc(NC(=O)c2c(N)cnn2C)cc1		inconclusive: 10 µM [activator, partial curve]
CCOC(=O)CSc1ccc(C(=O)Nc2ccc(OC)cc2)cn1		inconclusive: 5.62 µM [activator, single point]
O=C(c1ccc([N+](=O)[O-])o1)N1CCc2ccccc21		inconclusive: 28.2 µM [inhibitor, single point]
O=C(NNC(=O)c1cc(-c2ccc(Cl)c(Cl)c2)nc2ccccc12)Nc1ccccc1		inconclusive: 10 µM [inhibitor, partial curve, poor fit]
CCc1cc2cc(C(=O)Nc3ccc(F)cc3)sc2s1		inconclusive: 0.461 µM [activator, full curve, poor fit]
CCOC(=O)c1cc2n(n1)C(C(F)(F)F)CC(C)N2 (stereo not given)	inactive: 14.1%	
Cc1ccc(C(=O)NCCNC(=O)c2ccc(F)cc2)cn1		inconclusive: 35.5 µM [inhibitor, single point]
